What all share (test): co-IP; HEK293T cells co-transfected, lysed 48 h later in IP lysis buffer (50 mM Tris-HCl pH 7.5, 0.5% Nonidet P-40, 1 mM EDTA, 150 mM NaCl, 1 mM DTT); immunoprecipitation with anti-Flag M2, anti-c-Myc or anti-FBXW7 antibody and rProtein A agarose at 4 °C overnight; Western blot; reciprocal in Figure 2
(In general: Immunoblotting shows a protein as a band on a membrane.)

By UniProt entry, the sequences of proteins in these tests, tags left out.
UniProt Q5XUX1: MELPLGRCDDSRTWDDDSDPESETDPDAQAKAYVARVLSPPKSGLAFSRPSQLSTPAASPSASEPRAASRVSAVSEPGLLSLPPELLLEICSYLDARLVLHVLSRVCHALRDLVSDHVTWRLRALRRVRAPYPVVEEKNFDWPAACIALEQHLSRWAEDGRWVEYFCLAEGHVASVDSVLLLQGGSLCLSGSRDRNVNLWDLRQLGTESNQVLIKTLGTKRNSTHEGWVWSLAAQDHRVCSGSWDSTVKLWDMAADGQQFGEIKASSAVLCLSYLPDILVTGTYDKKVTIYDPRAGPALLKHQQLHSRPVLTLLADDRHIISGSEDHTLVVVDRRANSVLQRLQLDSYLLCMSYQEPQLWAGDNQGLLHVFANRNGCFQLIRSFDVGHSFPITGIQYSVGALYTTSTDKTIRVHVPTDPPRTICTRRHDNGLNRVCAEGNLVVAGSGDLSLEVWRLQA
UniProt Q9UKB1: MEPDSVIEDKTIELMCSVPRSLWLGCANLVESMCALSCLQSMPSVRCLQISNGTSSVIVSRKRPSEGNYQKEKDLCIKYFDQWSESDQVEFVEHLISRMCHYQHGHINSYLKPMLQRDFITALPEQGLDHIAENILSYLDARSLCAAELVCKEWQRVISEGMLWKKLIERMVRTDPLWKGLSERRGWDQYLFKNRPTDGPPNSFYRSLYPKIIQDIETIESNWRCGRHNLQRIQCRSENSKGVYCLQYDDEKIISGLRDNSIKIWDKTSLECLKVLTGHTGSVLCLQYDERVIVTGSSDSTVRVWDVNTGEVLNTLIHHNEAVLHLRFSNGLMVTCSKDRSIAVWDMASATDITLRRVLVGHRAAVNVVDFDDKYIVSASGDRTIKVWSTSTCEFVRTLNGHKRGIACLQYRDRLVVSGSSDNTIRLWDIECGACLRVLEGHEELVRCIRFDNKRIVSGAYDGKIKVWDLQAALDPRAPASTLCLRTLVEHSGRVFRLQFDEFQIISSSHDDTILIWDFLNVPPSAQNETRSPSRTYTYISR
UniProt Q969H0: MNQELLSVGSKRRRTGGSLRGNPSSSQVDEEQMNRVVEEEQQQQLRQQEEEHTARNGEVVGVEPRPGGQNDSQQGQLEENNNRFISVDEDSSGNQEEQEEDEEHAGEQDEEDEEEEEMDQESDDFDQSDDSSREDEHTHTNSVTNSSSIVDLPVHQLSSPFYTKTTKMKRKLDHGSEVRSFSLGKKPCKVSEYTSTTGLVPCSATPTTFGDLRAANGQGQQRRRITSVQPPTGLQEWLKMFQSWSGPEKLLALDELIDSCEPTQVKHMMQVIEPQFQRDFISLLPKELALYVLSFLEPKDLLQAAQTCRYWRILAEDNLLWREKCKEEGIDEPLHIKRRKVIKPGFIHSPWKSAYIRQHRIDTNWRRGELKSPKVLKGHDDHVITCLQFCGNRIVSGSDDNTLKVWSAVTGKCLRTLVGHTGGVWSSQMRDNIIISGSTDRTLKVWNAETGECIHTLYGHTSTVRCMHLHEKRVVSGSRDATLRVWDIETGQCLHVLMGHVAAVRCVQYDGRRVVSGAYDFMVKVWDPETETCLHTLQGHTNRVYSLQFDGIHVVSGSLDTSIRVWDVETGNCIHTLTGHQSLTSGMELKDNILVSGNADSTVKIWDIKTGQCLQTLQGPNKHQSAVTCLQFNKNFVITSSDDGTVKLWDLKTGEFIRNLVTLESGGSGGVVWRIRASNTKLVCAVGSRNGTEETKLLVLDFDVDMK
UniProt Q9Y297: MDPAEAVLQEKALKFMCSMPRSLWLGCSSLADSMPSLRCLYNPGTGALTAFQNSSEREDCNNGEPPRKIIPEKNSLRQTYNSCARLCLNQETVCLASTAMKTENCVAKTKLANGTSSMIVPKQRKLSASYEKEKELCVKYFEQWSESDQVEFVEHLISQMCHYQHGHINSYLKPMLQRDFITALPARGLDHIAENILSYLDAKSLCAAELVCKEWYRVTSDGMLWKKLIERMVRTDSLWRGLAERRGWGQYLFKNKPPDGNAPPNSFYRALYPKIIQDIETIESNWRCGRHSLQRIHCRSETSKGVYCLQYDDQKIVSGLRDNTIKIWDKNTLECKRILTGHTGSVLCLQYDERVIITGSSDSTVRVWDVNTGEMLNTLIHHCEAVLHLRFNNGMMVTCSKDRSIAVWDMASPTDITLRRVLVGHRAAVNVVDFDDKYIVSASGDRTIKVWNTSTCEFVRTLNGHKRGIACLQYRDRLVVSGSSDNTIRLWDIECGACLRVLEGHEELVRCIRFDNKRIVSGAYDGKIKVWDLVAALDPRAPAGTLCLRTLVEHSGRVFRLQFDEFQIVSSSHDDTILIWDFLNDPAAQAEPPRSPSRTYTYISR
UniProt Q969U6: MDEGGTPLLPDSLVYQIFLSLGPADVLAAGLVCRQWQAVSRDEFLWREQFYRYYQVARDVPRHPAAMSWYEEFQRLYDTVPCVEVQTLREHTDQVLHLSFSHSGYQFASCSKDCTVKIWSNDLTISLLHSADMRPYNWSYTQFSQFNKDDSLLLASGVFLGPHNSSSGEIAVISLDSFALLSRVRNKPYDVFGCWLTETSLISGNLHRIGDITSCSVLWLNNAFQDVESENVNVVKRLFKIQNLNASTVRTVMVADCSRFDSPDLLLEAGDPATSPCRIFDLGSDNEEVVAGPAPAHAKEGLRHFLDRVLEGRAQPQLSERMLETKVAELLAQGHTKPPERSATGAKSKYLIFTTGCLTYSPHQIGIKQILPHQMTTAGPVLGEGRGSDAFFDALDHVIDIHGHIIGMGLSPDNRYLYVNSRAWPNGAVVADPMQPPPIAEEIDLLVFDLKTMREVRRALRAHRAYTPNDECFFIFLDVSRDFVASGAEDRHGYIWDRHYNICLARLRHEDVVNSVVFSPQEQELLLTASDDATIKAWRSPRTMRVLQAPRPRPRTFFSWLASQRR

In assay [1] the target is T1, Myc-His-IL-17RA full-length (human) (UniProt Q96F46).
T1 sequence: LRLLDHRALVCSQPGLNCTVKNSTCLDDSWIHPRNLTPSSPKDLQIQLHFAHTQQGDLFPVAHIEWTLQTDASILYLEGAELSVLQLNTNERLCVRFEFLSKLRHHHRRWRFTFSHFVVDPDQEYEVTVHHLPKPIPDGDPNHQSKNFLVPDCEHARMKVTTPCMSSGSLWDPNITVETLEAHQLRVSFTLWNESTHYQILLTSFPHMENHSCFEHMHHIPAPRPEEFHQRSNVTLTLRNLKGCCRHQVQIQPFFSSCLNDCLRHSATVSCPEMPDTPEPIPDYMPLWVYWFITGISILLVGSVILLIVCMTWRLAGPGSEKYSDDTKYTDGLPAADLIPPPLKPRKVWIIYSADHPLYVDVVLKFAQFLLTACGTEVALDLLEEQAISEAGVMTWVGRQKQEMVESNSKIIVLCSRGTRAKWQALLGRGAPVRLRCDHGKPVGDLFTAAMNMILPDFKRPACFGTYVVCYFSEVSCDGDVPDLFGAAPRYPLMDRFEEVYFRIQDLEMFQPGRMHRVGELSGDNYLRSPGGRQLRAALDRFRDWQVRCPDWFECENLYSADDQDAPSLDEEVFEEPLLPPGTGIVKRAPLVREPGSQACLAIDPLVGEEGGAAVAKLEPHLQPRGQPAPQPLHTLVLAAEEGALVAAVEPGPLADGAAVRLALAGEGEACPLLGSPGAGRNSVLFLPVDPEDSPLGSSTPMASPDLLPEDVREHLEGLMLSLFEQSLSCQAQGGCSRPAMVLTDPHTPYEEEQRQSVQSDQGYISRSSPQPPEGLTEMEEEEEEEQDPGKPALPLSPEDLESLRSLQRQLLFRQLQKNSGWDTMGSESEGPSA

Assay [2] has as its target T2, Flag-IL-17RA full-length (human) (UniProt Q96F46).
T2 sequence: T1 sequence

The target in assay [3] is T3, Flag-IL-17RA ∆729-773 (human) (UniProt Q96F46).
T3 sequence: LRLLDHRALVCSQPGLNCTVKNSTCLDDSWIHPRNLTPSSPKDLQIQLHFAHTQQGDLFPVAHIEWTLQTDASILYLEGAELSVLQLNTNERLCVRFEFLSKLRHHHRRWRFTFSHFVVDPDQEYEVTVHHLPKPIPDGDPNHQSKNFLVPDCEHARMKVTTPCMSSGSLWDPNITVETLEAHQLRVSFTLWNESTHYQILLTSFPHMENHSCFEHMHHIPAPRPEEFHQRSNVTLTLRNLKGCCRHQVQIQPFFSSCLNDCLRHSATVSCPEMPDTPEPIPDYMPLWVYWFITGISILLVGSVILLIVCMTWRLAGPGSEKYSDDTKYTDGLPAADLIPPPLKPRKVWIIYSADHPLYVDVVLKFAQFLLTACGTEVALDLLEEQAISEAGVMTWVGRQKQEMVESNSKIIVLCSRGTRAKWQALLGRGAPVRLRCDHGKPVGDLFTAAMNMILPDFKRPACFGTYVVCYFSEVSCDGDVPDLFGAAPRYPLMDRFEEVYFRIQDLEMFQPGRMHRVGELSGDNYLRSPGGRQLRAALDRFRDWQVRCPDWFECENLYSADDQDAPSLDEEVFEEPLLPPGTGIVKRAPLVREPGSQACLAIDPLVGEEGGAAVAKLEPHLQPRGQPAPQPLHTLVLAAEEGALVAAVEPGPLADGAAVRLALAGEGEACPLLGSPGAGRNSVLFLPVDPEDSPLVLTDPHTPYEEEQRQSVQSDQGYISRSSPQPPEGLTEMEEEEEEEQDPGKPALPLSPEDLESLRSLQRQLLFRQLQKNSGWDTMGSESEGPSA

No constants are given. Whether binding was seen depends on the method and setting. In cells and extracts the contact can be indirect. Some binding calls cover weakened binding; strength is not graded here. Sequences can lack the tags named with a protein.

Here are results for five substances from publication PMC11047997.

For “Flag-HA-FBXW9 (from UniProt Q5XUX1 1-458) (enzyme)”, in assay [1], the binding entry is given as “binds”.
On to “Flag-HA-FBXW11 (from UniProt Q9UKB1 1-542) (enzyme)”, for which the binding entry in assay [2], in assay [1] and in assay [3] was “binds” throughout.
On to “HA-tagged full-length FBXW7 (from UniProt Q969H0 1-707) (enzyme)”, for which the binding entry in assay [2] is recorded as “binds weakly”.
For “Myc-FBXW1A (from UniProt Q9Y297 1-605) (enzyme)”, the binding result in assay [2] and in assay [3] was “binds” in each case.
On to “Myc-FBXW5 (from UniProt Q969U6 1-566) (enzyme)”, for which the binding entry in assay [2] was “binds”.
